This is an account of results in PMC4094278, “The Dictyostelium discoideum RACK1 orthologue has roles in growth and development” (Cell Communication and Signaling : CCS, 2014).

Results are given in words; binding and its absence hold for the method and conditions named. Binding seen in cells or lysates may run through a third protein. A result given as binding can be weak or reduced; the word gives no strength.

The assay addresses GFP-DdRACK1mut (D. discoideum) (UniProt P46800). Put plainly: co-IP; GFP-, YFP- or RFP-tagged protein from AX2 lysates bound to GFP-trap or RFP-trap beads; lysis in 10 mM Tris/HCl pH 7.4, 150 mM NaCl, 0.5% NP40; 3 h; endogenous DdRACK1 detected by western blot with polyclonal antibodies. (In general: Immunoblotting shows a protein as a band on a membrane.)

B1: recombinant DdRACK1 full length protein cleaved from the GST part (natural protein, D. discoideum, UniProt P46800 1-329, looked up)
chain: MEQQKAPQVTYLEVGSLVGHNGFVTSIAVSPENPDTIISSSRDKTVMVWQLTPTDATSPGKAHRSLKGHSHFVQDVVISHDGQFALSGSWDNTLRLWDITKGVSTRLFKGHTQDVMSVAFSSDNRQIISGSRDATIKVWNTLGECKFTLEGPEAHQDWVSCIRFSPNTPTIVSGSWDNKVKIWDIKSFKCNHTLTDHTGYVNTVTISPDGSLCASGGKDTFACLWELSSGKPLYKLEARNTINALAFSPNKYWLSAATDDKIIIWDLLTKQVLAEIVPEVKEQAFDSKKKKESKPKAPACLSLAWSADGSVLYAGYNDGLIRVYKSSSQ
notes: D. discoideum RACK1 (GpbB), 329 amino acids; Cloned in pGEX-4T-1; cleaved with thrombin; also called GpbB; D. discoideum RACK1; source: E. coli XL1 Blue, purified (GST-Sepharose, thrombin cleavage, DE-52 anion exchange)
For the molecule B1, the binding entry is “binds”.
